This is a selection; strong and weak results do not stand in their true shares. Most values lie at the level of the controls, where differences are scatter.
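Note: lysate desalted by size exclusion to strip endogenous ATP, peptide intensities built from DIA-NN precursor signals, and peptides missing any value discarded before comparison.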

The target in the assay is T1, UniProt P0A9Q9.
T1 sequence (whole entry): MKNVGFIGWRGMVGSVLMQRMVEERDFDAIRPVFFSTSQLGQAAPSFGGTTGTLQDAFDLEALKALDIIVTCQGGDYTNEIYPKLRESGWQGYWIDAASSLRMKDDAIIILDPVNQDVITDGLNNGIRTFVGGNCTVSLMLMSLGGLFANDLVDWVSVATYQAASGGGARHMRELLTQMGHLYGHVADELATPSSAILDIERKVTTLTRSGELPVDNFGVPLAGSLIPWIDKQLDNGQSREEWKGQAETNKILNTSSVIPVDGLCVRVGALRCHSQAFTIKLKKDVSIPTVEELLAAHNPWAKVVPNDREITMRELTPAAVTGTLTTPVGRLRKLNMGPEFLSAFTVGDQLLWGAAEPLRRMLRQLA
The assay can be described thus: log2 fold change of tryptic peptide abundance, ligand vs vehicle (limited proteolysis) (log2 ratio); higher = more trypsin-susceptible (destabilized). Particulars: peptide sequence: NVGFIGWR; peptide start residue: 3; ligand concentration: 5 mM; sample: E. coli desalted lysate; replicate design: treated before aliquoting. As for the experimental part: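 HT-PELSA: desalted E. coli K-12 BW25113 lysate (with 12 mM MgCl2) incubated with 5 mM ATP (pH 7) or water for 30 min at 25 C, then a 4 min trypsin pulse at 22 C. Peptides were quantified by DIA-MS (4 replicates). Value is the peptide log2 fold change (treated/control); negative = stabilized. Scale: negative = ligand-stabilized region.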
For `Nc1ncnc2c1ncn2[C@@H]1O[C@H](COP(=O)(O)OP(=O)(O)OP(=O)(O)O)[C@@H](O)[C@H]1O` [adenosine 5'-triphosphate], the log2 fold change is -0.31.

Source of the values: the supplement of paper PMC12819154, “High-throughput peptide-centric local stability assay extends protein–ligand identification to membrane proteins, tissues and bacteria” (Nature Structural & Molecular Biology, 2025).
